In one assay the target is T1, HA-ANXA1 (UniProt P10107).
T1 sequence: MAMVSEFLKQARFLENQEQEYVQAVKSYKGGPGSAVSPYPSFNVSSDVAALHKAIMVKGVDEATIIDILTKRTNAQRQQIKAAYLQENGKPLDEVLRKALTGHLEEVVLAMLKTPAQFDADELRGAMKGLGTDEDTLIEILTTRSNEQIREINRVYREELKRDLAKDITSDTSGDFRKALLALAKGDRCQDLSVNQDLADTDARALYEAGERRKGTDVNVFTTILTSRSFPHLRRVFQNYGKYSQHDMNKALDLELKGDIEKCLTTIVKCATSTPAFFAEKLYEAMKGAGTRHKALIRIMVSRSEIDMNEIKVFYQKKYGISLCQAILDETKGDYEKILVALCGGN
Description: co-IP; HA-ANXA1 and His-SUMO2, in the cytoplasm; OGD/R with or without Tat-NTS peptide; antibody overnight at 4 °C, Protein A+G agarose, immunoblot.

The chains behind the UniProt entries cited, without tags or fusion partners. Where a name states a change or a piece, a line headed by the entry shows the natural chain unless it says otherwise.
UniProt P61957: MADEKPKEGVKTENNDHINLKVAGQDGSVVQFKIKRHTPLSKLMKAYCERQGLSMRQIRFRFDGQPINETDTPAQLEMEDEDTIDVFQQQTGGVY

For assay [1], the target named is T2, Annexin-A1 (endogenous, mouse microglia) (mouse (endogenous in primary microglia and in MCAO/R mice)) (UniProt P10107).
T2 sequence: T1 sequence
The assay is described as follows: co-IP; endogenous proteins, OGD/R-treated primary microglia with Tat-NTS peptide; antibody overnight at 4 °C, Protein A+G agarose, immunoblot.

The target of assay [2] is T2, Annexin-A1 (endogenous, mouse microglia) (mouse (endogenous in primary microglia and in MCAO/R mice)). The assay is described as follows: co-IP; endogenous proteins from MCAO/R mice treated with Tat-NTS or Tat-Scr peptide; IP and immunoblot.

These are yes or no findings as the source states them, for the method shown. Binding seen in cells or lysates may run through a third protein. A result given as binding can be weak or reduced; the word gives no strength. For part of these data: Tags and fused reporters may be left off the sequences shown.

In the case of His-SUMO2 (from UniProt P61957), the binding entry with HA-ANXA1 was “binds”.
As for “SUMO2 (endogenous, mouse microglia) (from UniProt P61957)”, the binding entry in assay [1] and in assay [2] was “binds” each time.

The values above are taken from paper PMC10614677.
